Among the data in PMC9166773, “Latrophilin-2 is a novel receptor of LRG1 that rescues vascular and neurological abnormalities and restores diabetic erectile function” (Experimental & Molecular Medicine, 2022) are binding values, retold here.

Chains of the proteins cited; added tags and fusions are not shown.
UniProt Q16718: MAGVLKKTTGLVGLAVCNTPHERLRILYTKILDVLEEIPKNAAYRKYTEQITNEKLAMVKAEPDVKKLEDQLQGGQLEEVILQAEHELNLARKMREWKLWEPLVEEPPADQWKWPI
UniProt P17931: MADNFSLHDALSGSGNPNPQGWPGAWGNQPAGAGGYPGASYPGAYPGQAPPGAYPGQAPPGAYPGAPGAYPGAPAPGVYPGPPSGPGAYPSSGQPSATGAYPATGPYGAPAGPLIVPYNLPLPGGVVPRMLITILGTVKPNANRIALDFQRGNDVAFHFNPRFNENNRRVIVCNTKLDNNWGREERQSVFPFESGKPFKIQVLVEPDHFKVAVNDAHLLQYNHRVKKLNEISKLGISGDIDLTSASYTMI

The target of assay [1] is T1, Leucine-rich alpha-2-glycoprotein 1 (LRG1), recombinant tag-free human LRG1 (human) (UniProt P02750).
T1 sequence: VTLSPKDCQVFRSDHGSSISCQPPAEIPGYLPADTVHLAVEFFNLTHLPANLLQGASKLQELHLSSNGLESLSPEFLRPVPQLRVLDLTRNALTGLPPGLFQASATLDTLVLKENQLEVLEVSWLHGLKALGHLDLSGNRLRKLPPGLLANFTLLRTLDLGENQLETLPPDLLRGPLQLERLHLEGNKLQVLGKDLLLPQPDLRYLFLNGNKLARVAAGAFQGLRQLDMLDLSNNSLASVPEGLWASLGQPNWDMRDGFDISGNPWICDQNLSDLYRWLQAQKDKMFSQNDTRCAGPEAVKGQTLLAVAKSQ
The experiment in a line: TriCEPS-based ligand-receptor capture (LRC-TriCEPS) with LC-MS/MS; TriCEPS-coupled LRG1 (300 ug) incubated 90 min at 4 °C with live HEK293T cells mildly oxidised with 1.5 mM NaIO4, PBS with 1% FBS pH 6.5; captured glycoproteins affinity purified and identified by LC-MS/MS; transferrin as control ligand; hits: enrichment factor > 4 and FDR-adjusted P < 0.05; only the target purified.

The target in assay [2] is T2, Latrophilin-2 (LPHN2), endogenous (human (endogenous in HEK293T and HUVEC)) (UniProt O95490).
T2 sequence: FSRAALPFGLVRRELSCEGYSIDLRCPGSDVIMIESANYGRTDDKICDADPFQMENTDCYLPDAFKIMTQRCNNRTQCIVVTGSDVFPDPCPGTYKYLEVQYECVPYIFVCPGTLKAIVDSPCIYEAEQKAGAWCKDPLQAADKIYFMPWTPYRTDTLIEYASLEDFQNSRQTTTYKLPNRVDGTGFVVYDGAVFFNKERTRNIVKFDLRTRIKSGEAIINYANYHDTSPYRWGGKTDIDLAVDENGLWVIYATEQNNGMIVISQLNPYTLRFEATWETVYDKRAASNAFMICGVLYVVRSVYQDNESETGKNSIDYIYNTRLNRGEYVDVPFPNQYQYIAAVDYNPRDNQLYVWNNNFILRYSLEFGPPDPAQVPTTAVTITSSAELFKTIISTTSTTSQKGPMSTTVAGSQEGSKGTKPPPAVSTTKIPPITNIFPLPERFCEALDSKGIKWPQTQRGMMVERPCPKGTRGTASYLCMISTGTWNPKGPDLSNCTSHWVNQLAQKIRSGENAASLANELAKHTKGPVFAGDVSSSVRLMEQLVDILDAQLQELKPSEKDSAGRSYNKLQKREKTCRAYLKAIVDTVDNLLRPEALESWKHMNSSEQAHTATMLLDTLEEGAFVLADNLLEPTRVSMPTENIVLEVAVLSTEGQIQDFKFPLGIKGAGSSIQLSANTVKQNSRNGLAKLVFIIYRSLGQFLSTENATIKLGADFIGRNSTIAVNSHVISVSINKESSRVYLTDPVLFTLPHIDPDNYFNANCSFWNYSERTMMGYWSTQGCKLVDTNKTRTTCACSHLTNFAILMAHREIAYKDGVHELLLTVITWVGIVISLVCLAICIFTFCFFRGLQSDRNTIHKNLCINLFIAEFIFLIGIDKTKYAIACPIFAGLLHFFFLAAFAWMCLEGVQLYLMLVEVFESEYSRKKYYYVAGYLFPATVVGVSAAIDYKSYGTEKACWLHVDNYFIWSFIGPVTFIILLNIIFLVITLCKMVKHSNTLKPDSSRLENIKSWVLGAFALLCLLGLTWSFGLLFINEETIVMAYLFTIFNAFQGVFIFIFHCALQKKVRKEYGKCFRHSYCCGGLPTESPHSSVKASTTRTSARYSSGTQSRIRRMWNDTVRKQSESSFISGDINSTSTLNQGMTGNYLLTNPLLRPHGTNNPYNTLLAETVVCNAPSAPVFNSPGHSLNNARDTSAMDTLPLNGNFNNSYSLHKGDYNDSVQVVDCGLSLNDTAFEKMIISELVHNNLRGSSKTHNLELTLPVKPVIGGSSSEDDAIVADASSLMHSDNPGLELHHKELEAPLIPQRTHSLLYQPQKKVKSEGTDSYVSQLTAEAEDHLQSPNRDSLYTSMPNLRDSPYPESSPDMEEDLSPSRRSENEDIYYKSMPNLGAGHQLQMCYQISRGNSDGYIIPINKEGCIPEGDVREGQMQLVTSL
The experiment in a line: cell surface binding assay (confocal fluorescence microscopy); HEK293T cells and HUVECs (shCon or shLPHN2 lentivirus) incubated with LRG1-YFP or YFP (10 ug/ml) for 1 h at 37 °C, washed, fixed, imaged; only the binder purified.

Assay [3] concerns the target T2, Latrophilin-2 (LPHN2), endogenous (human (endogenous in HEK293T and HUVEC)). Nature of the assay: co-IP; HUVECs treated with or without LRG1 (1 ug/ml) for 10 min, lysed in RIPA buffer; IP with anti-LPHN2 antibody, immunoblot for LRG1 and LPHN2; only the binder purified.
In assay [4] the target is T3, LPHN2 Lec-Olf-GAIN/GPS domains (F26-R796), recombinant ecto-full LPHN2, O95490.
T3 chain: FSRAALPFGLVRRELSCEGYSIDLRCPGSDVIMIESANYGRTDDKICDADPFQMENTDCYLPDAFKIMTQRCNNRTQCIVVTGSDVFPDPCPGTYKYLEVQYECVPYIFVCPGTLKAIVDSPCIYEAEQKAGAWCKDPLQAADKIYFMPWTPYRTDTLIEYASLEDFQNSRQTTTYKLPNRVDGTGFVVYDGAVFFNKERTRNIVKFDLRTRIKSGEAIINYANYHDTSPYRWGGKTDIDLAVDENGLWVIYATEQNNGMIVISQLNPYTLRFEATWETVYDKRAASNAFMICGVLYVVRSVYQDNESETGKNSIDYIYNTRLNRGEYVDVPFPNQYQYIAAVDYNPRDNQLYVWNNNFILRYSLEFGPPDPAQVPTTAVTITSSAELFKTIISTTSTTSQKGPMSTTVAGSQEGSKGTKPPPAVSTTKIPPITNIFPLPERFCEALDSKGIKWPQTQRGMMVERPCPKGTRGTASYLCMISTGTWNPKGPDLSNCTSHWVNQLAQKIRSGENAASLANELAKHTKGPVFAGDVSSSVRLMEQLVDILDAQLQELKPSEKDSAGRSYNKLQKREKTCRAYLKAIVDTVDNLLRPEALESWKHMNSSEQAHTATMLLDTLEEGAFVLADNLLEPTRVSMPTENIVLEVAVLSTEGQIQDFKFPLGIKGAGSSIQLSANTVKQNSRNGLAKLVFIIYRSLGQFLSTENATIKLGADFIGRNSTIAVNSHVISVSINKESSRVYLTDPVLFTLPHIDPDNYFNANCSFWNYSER
Nature of the assay: solid-phase binding assay; LRG1 and recombinant extracellular domains of LPHN2 (and Lec/Olf of LPHN1, LPHN3); who was immobilised and conditions not told in the text shown; both purified. The conditions noted are these: remark: other sources report otherwise.

Results are given in words; binding and its absence hold for the method and conditions named. For part of these data: In cells and extracts the contact can be indirect. Some results given as binding are weak or reduced against the parent protein; the word gives no strength. Sequences can lack the tags named with a protein.

Regarding “NADH dehydrogenase 1 alpha subcomplex subunit 5 (NDUA5) (from UniProt Q16718 1-116)”, the binding result in assay [1] is recorded as “binds”.

Consider “galectin-3 (LEG3) (from UniProt P17931 1-250)”, for which the binding entry in assay [1] is on record as “binds”.

B1: YFP-His-tagged human LRG1 (LRG1-YFP) (ligand, UniProt P02750 36-347)
chain: VTLSPKDCQVFRSDHGSSISCQPPAEIPGYLPADTVHLAVEFFNLTHLPANLLQGASKLQELHLSSNGLESLSPEFLRPVPQLRVLDLTRNALTGLPPGLFQASATLDTLVLKENQLEVLEVSWLHGLKALGHLDLSGNRLRKLPPGLLANFTLLRTLDLGENQLETLPPDLLRGPLQLERLHLEGNKLQVLGKDLLLPQPDLRYLFLNGNKLARVAAGAFQGLRQLDMLDLSNNSLASVPEGLWASLGQPNWDMRDGFDISGNPWICDQNLSDLYRWLQAQKDKMFSQNDTRCAGPEAVKGQTLLAVAKSQ
Regarding B1, the binding entry in assay [2] was “binds”.

B2: Leucine-rich alpha-2-glycoprotein 1 (LRG1), recombinant tag-free human LRG1 (ligand, UniProt P02750 36-347, looked up)
chain: VTLSPKDCQVFRSDHGSSISCQPPAEIPGYLPADTVHLAVEFFNLTHLPANLLQGASKLQELHLSSNGLESLSPEFLRPVPQLRVLDLTRNALTGLPPGLFQASATLDTLVLKENQLEVLEVSWLHGLKALGHLDLSGNRLRKLPPGLLANFTLLRTLDLGENQLETLPPDLLRGPLQLERLHLEGNKLQVLGKDLLLPQPDLRYLFLNGNKLARVAAGAFQGLRQLDMLDLSNNSLASVPEGLWASLGQPNWDMRDGFDISGNPWICDQNLSDLYRWLQAQKDKMFSQNDTRCAGPEAVKGQTLLAVAKSQ
notes: human LRG1, residues V36-Q347; In the TriCEPS capture LRG1 was coupled to the TriCEPS reagent; Residues of the thrombin site may remain after cleavage; also called recombinant LRG1; soluble LRG1; not shown: Fc (human IgG), C-terminal, cleaved
In the case of B2, the binding result in assay [3] is “binds”.

B3: Leucine-rich alpha-2-glycoprotein 1 (LRG1), recombinant tag-free human LRG1, P02750 36-347 (ligand)
chain: VTLSPKDCQVFRSDHGSSISCQPPAEIPGYLPADTVHLAVEFFNLTHLPANLLQGASKLQELHLSSNGLESLSPEFLRPVPQLRVLDLTRNALTGLPPGLFQASATLDTLVLKENQLEVLEVSWLHGLKALGHLDLSGNRLRKLPPGLLANFTLLRTLDLGENQLETLPPDLLRGPLQLERLHLEGNKLQVLGKDLLLPQPDLRYLFLNGNKLARVAAGAFQGLRQLDMLDLSNNSLASVPEGLWASLGQPNWDMRDGFDISGNPWICDQNLSDLYRWLQAQKDKMFSQNDTRCAGPEAVKGQTLLAVAKSQ
In the case of B3, in assay [4], the binding result was “no binding”.

B4: Latrophilin-2 (LPHN2), endogenous (receptor, UniProt O95490 26-1459)
chain: FSRAALPFGLVRRELSCEGYSIDLRCPGSDVIMIESANYGRTDDKICDADPFQMENTDCYLPDAFKIMTQRCNNRTQCIVVTGSDVFPDPCPGTYKYLEVQYECVPYIFVCPGTLKAIVDSPCIYEAEQKAGAWCKDPLQAADKIYFMPWTPYRTDTLIEYASLEDFQNSRQTTTYKLPNRVDGTGFVVYDGAVFFNKERTRNIVKFDLRTRIKSGEAIINYANYHDTSPYRWGGKTDIDLAVDENGLWVIYATEQNNGMIVISQLNPYTLRFEATWETVYDKRAASNAFMICGVLYVVRSVYQDNESETGKNSIDYIYNTRLNRGEYVDVPFPNQYQYIAAVDYNPRDNQLYVWNNNFILRYSLEFGPPDPAQVPTTAVTITSSAELFKTIISTTSTTSQKGPMSTTVAGSQEGSKGTKPPPAVSTTKIPPITNIFPLPERFCEALDSKGIKWPQTQRGMMVERPCPKGTRGTASYLCMISTGTWNPKGPDLSNCTSHWVNQLAQKIRSGENAASLANELAKHTKGPVFAGDVSSSVRLMEQLVDILDAQLQELKPSEKDSAGRSYNKLQKREKTCRAYLKAIVDTVDNLLRPEALESWKHMNSSEQAHTATMLLDTLEEGAFVLADNLLEPTRVSMPTENIVLEVAVLSTEGQIQDFKFPLGIKGAGSSIQLSANTVKQNSRNGLAKLVFIIYRSLGQFLSTENATIKLGADFIGRNSTIAVNSHVISVSINKESSRVYLTDPVLFTLPHIDPDNYFNANCSFWNYSERTMMGYWSTQGCKLVDTNKTRTTCACSHLTNFAILMAHREIAYKDGVHELLLTVITWVGIVISLVCLAICIFTFCFFRGLQSDRNTIHKNLCINLFIAEFIFLIGIDKTKYAIACPIFAGLLHFFFLAAFAWMCLEGVQLYLMLVEVFESEYSRKKYYYVAGYLFPATVVGVSAAIDYKSYGTEKACWLHVDNYFIWSFIGPVTFIILLNIIFLVITLCKMVKHSNTLKPDSSRLENIKSWVLGAFALLCLLGLTWSFGLLFINEETIVMAYLFTIFNAFQGVFIFIFHCALQKKVRKEYGKCFRHSYCCGGLPTESPHSSVKASTTRTSARYSSGTQSRIRRMWNDTVRKQSESSFISGDINSTSTLNQGMTGNYLLTNPLLRPHGTNNPYNTLLAETVVCNAPSAPVFNSPGHSLNNARDTSAMDTLPLNGNFNNSYSLHKGDYNDSVQVVDCGLSLNDTAFEKMIISELVHNNLRGSSKTHNLELTLPVKPVIGGSSSEDDAIVADASSLMHSDNPGLELHHKELEAPLIPQRTHSLLYQPQKKVKSEGTDSYVSQLTAEAEDHLQSPNRDSLYTSMPNLRDSPYPESSPDMEEDLSPSRRSENEDIYYKSMPNLGAGHQLQMCYQISRGNSDGYIIPINKEGCIPEGDVREGQMQLVTSL
As to B4, the binding entry in assay [1] is “binds”.
